Measured values taken from the supplement of paper PMC10626197.
Where a name gives a salt, the structure may show the parent alone. Some well-known active drugs show little effect in this data set, so a weak value is uncertain.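 Drug pairs were tested on MCF7 breast cancer cells in a dose grid. On every plate, solvent-only DMSO wells served as the untreated reference, and a doxorubicin series served as the total-kill control. No hit threshold applies to the viability readings.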

System: MCF7
Experiment: cell viability relative to DMSO control (raw); higher = more viable cells
Conditions: exposure time 72 h
Protocol: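 MCF7 cells, 1000 cells/well in 384-well plates, treated with 6x6 dose matrices of drug pairs (1:3 serial dilutions, DMSO as lowest dose) for 72 h at 37 °C. Viability read by CellTiter-Glo luminescence, 3 biological replicates. Normalised viability sets 0% at the highest doxorubicin dose and 100% at the 0,0 µM control per combination.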

O=c1[nH]cc(F)c(=O)[nH]1 [5-Fluorouracil] + COc1cc2c(Oc3ccc(NC(=O)C4(C(=O)Nc5ccc(F)cc5)CC4)cc3F)ccnc2cc1OCCCN1CCOCC1 [Foretinib]
cell viability [%]
Conditions | drug 2 concentration 0 µM | drug 2 concentration 0.348765 µM | drug 2 concentration 1.0463 µM | drug 2 concentration 3.13889 µM | drug 2 concentration 9.41667 µM | drug 2 concentration 28.25 µM
drug 1 concentration 0.617284 µM | 83.2 | 69 | 57.8 | 24.3 | 2.79 | 1.08
drug 1 concentration 1.85185 µM | 81.2 | 79.1 | 64.3 | 33.6 | 3.92 | 1.17
drug 1 concentration 5.55556 µM | 71.2 | 64.9 | 55.7 | 26.9 | 2.67 | 0.867
drug 1 concentration 16.6667 µM | 67.7 | 65 | 58.8 | 22.9 | 2.45 | 0.86
drug 1 concentration 50 µM | 72.7 | 61.4 | 55.1 | 18.1 | 2.21 | 1.1

O=c1[nH]cc(F)c(=O)[nH]1 [5-Fluorouracil] + Cc1onc(-c2ccccc2)c1-c1ccc(S(N)(=O)=O)cc1 [Valdecoxib]
cell viability [%]
Conditions | drug 2 concentration 0 µM | drug 2 concentration 0.17284 µM | drug 2 concentration 0.518519 µM | drug 2 concentration 1.55556 µM | drug 2 concentration 4.66667 µM | drug 2 concentration 14 µM
drug 1 concentration 0.617284 µM | 96.8 | 94.4 | 97.8 | 94.1 | 91.5 | 92.3
drug 1 concentration 1.85185 µM | 91.6 | 90.8 | 97.5 | 97.8 | 94.7 | 76.8
drug 1 concentration 5.55556 µM | 88.2 | 100 | 96.3 | 91.8 | 94.4 | 86.4
drug 1 concentration 16.6667 µM | 77.1 | 76.3 | 84.4 | 84.9 | 80.7 | 63.2
drug 1 concentration 50 µM | 85.5 | 89.1 | 88.6 | 87.3 | 84.9 | 79.5

CC(=O)O[C@H]1CC[C@@]2(C)C(=CC[C@@H]3[C@@H]2CC[C@]2(C)C(c4cccnc4)=CC[C@@H]32)C1 [Abiraterone acetate] + C=C1/C(=C\C=C2/CCC[C@]3(C)[C@@H]([C@H](C)CCCC(C)C)CC[C@@H]23)C[C@@H](O)C[C@@H]1O [Alfacalcidol]
cell viability [%]
Conditions | drug 2 concentration 0 µM | drug 2 concentration 0.617284 µM | drug 2 concentration 1.85185 µM | drug 2 concentration 5.55556 µM | drug 2 concentration 16.6667 µM | drug 2 concentration 50 µM
drug 1 concentration 0.246914 µM | 106 | 104 | 99.2 | 89.5 | 81.9 | 0.803
drug 1 concentration 0.740741 µM | 84.5 | 80.2 | 87.2 | 88.9 | 69.9 | 1.15
drug 1 concentration 2.22222 µM | 98.1 | 95.6 | 91.9 | 84.1 | 77.6 | 0.721
drug 1 concentration 6.66667 µM | 85.2 | 78.7 | 77 | 80.7 | 58.2 | 0.893
drug 1 concentration 20 µM | 64.6 | 67.8 | 61.2 | 58.2 | 60.3 | 0.713

CC(=O)O[C@H]1CC[C@@]2(C)C(=CC[C@@H]3[C@@H]2CC[C@]2(C)C(c4cccnc4)=CC[C@@H]32)C1 [Abiraterone acetate] + CN(C)C[C@@H]1CCn2cc(c3ccccc32)C2=C(C(=O)NC2=O)c2cn(c3ccccc23)CCO1 [Ruboxistaurin (LY333531 HCl)]
cell viability [%]
Conditions | drug 2 concentration 0 µM | drug 2 concentration 0.123457 µM | drug 2 concentration 0.37037 µM | drug 2 concentration 1.11111 µM | drug 2 concentration 3.33333 µM | drug 2 concentration 10 µM
drug 1 concentration 0.246914 µM | 90.9 | 91.1 | 103 | 99.9 | 85.6 | 19.1
drug 1 concentration 0.740741 µM | 95.9 | 97.8 | 102 | 97.4 | 84.6 | 27
drug 1 concentration 2.22222 µM | 98.2 | 108 | 106 | 112 | 87.9 | 24.1
drug 1 concentration 6.66667 µM | 85.8 | 90 | 88.6 | 89.1 | 79.2 | 12
drug 1 concentration 20 µM | 54.6 | 56.6 | 57 | 50.9 | 56 | 13.5

CC(=O)O[C@H]1CC[C@@]2(C)C(=CC[C@@H]3[C@@H]2CC[C@]2(C)C(c4cccnc4)=CC[C@@H]32)C1 [Abiraterone acetate] + Nc1ccccc1NC(=O)c1ccc(CNC(=O)OCc2cccnc2)cc1 [Entinostat]
cell viability [%]
Conditions | drug 2 concentration 0 µM | drug 2 concentration 0.0740741 µM | drug 2 concentration 0.222222 µM | drug 2 concentration 0.666667 µM | drug 2 concentration 2 µM | drug 2 concentration 6 µM
drug 1 concentration 0.246914 µM | 109 | 106 | 105 | 92 | 69.6 | 31.3
drug 1 concentration 0.740741 µM | 123 | 129 | 121 | 110 | 71.6 | 27.5
drug 1 concentration 2.22222 µM | 108 | 114 | 104 | 95.2 | 72.4 | 30.2
drug 1 concentration 6.66667 µM | 102 | 99.1 | 102 | 85.7 | 53 | 18.7
drug 1 concentration 20 µM | 67.3 | 65.4 | 56.7 | 45.9 | 30.5 | 18.9

Oc1ncnc2[nH]ncc12 [Allopurinol] + COc1cc2nc(N3CCN(C(=O)C4CCCO4)CC3)nc(N)c2cc1OC [Terazosin (hydrochloride dihydrate)]
cell viability [%]
Conditions | drug 2 concentration 0 µM | drug 2 concentration 0.0308642 µM | drug 2 concentration 0.0925926 µM | drug 2 concentration 0.277778 µM | drug 2 concentration 0.833333 µM | drug 2 concentration 2.5 µM
drug 1 concentration 0.740741 µM | 83.9 | 85.6 | 96.2 | 95.1 | 89.5 | 87.6
drug 1 concentration 2.22222 µM | 85.5 | 88.4 | 90.8 | 93.3 | 92.5 | 78.9
drug 1 concentration 6.66667 µM | 94.1 | 91.1 | 91.7 | 82.7 | 91.8 | 93.5
drug 1 concentration 20 µM | 85.1 | 89.2 | 95.8 | 95.3 | 86.3 | 84.6
drug 1 concentration 60 µM | 98.9 | 105 | 106 | 97.5 | 95.2 | 94.5

CC(C)(C#N)c1cc(Cn2cncn2)cc(C(C)(C)C#N)c1 [Anastrozole] + CN(C)C1CCN(C(=O)c2ccc(NC(=O)Nc3ccc(-c4nc(N5CCOCC5)nc(N5CCOCC5)n4)cc3)cc2)CC1 [Gedatolisib (PF-05212384; PKI-587)]
cell viability [%]
Conditions | drug 2 concentration 0 µM | drug 2 concentration 0.0148148 µM | drug 2 concentration 0.0444444 µM | drug 2 concentration 0.133333 µM | drug 2 concentration 0.4 µM | drug 2 concentration 1.2 µM
drug 1 concentration 0.00864198 µM | 97.6 | 70.5 | 45.8 | 34.5 | 26.4 | 23.9
drug 1 concentration 0.0259259 µM | 97.5 | 70 | 48.3 | 31.2 | 23.7 | 22
drug 1 concentration 0.0777778 µM | 87.9 | 66 | 47.5 | 32 | 26.2 | 20.3
drug 1 concentration 0.233333 µM | 91.7 | 66.2 | 47.4 | 32.3 | 19.9 | 20.7
drug 1 concentration 0.7 µM | 109 | 73.3 | 50.3 | 31 | 27 | 24.4

CNC(=O)c1ccccc1Sc1ccc2c(/C=C/c3ccccn3)n[nH]c2c1 [Axitinib] + CC(=O)[C@H]1CC[C@H]2[C@@H]3CCC4=CC(=O)CC[C@]4(C)[C@H]3CC[C@]12C [Progesterone]
cell viability [%]
Conditions | drug 2 concentration 0 µM | drug 2 concentration 0.0493827 µM | drug 2 concentration 0.148148 µM | drug 2 concentration 0.444444 µM | drug 2 concentration 1.33333 µM | drug 2 concentration 4 µM
drug 1 concentration 0.0555556 µM | 94.2 | 87.1 | 90.2 | 80.8 | 77.3 | 76.6
drug 1 concentration 0.166667 µM | 95.6 | 96.2 | 94.1 | 81.5 | 80.5 | 74.3
drug 1 concentration 0.5 µM | 85.9 | 71.7 | 84 | 80.7 | 78.8 | 71.5
drug 1 concentration 1.5 µM | 80.9 | 79.3 | 78.8 | 86.5 | 77.4 | 70.9
drug 1 concentration 4.5 µM | 70 | 70.1 | 67.6 | 71.1 | 60.9 | 54.9

CNC(=O)c1ccccc1Sc1ccc2c(/C=C/c3ccccn3)n[nH]c2c1 [Axitinib] + C[C@@H](Nc1ncnc2[nH]c(-c3ccc(O)cc3)cc12)c1ccccc1 [PKI-166]
cell viability [%]
Conditions | drug 2 concentration 0 µM | drug 2 concentration 0.123457 µM | drug 2 concentration 0.37037 µM | drug 2 concentration 1.11111 µM | drug 2 concentration 3.33333 µM | drug 2 concentration 10 µM
drug 1 concentration 0.0555556 µM | 94.9 | 99.6 | 104 | 105 | 103 | 86.9
drug 1 concentration 0.166667 µM | 99.5 | 99.3 | 107 | 107 | 112 | 97.2
drug 1 concentration 0.5 µM | 105 | 97.3 | 96.4 | 98.2 | 100 | 99.3
drug 1 concentration 1.5 µM | 86.5 | 91.6 | 92 | 96.2 | 87.8 | 82.1
drug 1 concentration 4.5 µM | 79.1 | 78 | 80.6 | 77.3 | 82.1 | 69.1
